Experimental data: the supplement of paper PMC12823440, “Inhibitors supercharge kinase turnover through native proteolytic circuits” (Nature, 2025)
The list shows a part of the results. Hit calls seldom repeat between salt and free forms of one compound.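 Kinases, fused to nanoluciferase, were expressed in K562 cells; luminescence was measured every 4 h from 2 to 18 h as percent of control (DMSO = 100%, positive control = 0%). A time point is decreased if signal falls significantly (2 sigma). Hits were called by the authors by a rule that is not shown; the count of time points alone does not decide it.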

Protein sequences, listed by entry. Tags and fused reporters are not part of them. Lines headed by an entry give the natural chain unless they say otherwise; changes in a name come on top.
UniProt P50613: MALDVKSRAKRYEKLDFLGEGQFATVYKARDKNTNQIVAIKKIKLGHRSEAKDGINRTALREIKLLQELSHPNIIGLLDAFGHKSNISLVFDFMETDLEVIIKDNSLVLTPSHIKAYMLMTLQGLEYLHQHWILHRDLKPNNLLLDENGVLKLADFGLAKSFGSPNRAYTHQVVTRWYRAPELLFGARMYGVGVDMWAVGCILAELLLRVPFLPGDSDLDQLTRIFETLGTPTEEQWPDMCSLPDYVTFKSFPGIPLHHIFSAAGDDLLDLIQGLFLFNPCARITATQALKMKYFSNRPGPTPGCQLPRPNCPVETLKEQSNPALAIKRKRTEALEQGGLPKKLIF
UniProt P50750, whole entry: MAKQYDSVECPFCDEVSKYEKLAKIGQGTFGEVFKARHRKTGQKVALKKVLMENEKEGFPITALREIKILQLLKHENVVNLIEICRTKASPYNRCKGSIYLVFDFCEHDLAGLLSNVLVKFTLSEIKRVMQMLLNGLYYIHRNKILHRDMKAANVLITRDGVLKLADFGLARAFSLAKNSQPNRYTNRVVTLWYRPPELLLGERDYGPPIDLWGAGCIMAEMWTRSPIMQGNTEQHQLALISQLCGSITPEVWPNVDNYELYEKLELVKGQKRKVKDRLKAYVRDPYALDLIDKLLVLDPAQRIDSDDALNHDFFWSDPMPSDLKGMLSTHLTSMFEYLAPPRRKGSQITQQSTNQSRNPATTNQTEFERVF
UniProt O96017, whole entry: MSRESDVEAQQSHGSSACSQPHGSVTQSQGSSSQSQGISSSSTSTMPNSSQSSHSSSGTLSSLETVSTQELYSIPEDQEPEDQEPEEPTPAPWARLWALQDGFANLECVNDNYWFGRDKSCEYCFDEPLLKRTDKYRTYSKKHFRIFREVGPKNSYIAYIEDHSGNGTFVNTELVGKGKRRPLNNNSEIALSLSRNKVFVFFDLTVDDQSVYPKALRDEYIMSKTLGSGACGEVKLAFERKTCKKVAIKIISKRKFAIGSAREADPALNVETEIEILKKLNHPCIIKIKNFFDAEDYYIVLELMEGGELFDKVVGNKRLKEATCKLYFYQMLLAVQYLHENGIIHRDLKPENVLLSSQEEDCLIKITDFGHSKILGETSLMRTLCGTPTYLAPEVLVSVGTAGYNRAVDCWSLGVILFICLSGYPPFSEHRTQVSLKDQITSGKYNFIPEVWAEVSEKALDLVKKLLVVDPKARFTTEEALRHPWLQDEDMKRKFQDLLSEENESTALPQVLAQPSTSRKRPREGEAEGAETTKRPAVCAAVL
UniProt P07333, whole entry: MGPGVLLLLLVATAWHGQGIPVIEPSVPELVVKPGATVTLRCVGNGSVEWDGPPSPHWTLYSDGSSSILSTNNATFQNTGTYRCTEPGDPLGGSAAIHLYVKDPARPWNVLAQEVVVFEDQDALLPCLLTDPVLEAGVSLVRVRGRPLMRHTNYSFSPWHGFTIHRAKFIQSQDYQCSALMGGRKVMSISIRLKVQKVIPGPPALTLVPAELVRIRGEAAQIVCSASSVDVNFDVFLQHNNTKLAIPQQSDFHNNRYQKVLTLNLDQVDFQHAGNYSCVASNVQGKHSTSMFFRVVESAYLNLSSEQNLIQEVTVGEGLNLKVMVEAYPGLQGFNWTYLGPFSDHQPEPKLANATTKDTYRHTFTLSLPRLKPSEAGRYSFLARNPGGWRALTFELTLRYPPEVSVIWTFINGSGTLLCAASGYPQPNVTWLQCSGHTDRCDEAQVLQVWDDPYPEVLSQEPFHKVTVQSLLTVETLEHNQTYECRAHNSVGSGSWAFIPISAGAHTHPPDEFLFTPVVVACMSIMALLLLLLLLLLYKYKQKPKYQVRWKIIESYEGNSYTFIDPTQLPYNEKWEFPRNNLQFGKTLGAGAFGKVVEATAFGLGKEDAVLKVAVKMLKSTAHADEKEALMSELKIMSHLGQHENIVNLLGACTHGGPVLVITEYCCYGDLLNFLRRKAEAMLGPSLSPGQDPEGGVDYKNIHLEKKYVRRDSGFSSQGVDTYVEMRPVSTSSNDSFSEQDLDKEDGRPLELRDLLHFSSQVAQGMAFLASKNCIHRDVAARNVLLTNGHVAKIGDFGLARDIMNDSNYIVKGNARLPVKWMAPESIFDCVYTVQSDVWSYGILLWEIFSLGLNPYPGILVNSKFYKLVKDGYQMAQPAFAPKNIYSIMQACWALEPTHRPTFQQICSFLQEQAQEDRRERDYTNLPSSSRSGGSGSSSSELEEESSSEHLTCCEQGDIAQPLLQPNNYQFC
UniProt P41240: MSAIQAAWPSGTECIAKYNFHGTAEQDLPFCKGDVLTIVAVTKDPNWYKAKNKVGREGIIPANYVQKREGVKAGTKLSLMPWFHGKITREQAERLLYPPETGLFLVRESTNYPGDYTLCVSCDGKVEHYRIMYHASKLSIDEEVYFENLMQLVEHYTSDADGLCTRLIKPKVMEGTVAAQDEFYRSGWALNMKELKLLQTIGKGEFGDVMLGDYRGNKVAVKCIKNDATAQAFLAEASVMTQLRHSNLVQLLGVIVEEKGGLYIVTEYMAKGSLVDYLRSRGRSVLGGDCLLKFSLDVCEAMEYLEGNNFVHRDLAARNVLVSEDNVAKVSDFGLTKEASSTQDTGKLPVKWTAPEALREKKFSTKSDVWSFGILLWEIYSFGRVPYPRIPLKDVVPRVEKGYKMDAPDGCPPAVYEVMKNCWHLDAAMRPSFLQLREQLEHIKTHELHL
UniProt P48729: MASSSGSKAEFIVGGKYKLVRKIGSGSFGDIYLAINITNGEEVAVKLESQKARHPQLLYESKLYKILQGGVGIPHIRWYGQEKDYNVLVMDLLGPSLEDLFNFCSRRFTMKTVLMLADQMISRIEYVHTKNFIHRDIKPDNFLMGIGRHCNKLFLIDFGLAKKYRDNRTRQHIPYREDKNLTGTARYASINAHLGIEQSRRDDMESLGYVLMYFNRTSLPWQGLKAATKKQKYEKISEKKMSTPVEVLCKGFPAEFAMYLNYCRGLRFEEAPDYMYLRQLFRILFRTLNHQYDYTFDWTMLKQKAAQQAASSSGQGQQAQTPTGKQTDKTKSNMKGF
UniProt P48730: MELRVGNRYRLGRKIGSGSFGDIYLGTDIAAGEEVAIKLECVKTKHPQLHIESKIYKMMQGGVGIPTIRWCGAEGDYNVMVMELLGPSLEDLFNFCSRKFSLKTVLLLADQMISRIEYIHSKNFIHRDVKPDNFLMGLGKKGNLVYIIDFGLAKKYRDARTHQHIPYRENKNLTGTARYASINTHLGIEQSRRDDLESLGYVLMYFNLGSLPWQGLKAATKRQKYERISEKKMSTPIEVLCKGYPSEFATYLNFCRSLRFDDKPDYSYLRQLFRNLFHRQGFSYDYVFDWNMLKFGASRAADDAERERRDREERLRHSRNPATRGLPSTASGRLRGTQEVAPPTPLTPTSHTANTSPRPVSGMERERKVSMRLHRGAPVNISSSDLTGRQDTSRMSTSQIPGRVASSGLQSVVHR
UniProt Q9Y463, whole entry, looked up: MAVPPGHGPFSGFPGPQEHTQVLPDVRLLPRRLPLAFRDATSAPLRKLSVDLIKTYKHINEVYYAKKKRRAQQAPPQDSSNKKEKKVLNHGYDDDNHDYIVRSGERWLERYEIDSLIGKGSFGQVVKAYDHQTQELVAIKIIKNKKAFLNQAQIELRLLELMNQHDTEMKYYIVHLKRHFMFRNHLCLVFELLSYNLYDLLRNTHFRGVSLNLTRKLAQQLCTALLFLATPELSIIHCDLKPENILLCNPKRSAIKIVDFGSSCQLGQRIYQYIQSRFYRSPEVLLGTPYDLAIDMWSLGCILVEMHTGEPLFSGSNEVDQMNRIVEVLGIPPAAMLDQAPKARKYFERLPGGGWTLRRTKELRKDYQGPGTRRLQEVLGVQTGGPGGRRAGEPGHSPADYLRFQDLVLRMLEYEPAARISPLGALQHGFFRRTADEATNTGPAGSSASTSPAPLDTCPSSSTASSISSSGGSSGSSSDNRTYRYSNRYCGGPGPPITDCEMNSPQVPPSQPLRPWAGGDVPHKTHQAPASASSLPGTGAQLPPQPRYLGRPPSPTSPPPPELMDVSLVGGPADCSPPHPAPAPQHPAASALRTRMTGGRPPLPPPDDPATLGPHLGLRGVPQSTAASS
UniProt Q92630: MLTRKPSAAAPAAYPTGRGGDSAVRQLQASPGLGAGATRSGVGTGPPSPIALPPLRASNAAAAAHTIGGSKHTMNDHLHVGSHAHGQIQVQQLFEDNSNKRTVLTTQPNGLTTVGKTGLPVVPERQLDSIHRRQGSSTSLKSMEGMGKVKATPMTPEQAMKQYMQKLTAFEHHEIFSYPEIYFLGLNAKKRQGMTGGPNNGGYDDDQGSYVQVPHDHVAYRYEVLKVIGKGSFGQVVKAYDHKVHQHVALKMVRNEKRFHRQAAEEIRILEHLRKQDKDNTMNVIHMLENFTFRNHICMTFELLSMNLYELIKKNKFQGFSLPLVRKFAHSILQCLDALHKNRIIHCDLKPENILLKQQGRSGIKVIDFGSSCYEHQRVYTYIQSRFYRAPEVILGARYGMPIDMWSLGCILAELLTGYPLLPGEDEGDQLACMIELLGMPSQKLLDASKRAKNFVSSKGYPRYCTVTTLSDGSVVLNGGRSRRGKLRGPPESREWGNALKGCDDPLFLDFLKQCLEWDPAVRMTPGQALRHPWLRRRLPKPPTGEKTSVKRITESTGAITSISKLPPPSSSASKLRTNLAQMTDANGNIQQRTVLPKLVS
UniProt P21860, whole entry: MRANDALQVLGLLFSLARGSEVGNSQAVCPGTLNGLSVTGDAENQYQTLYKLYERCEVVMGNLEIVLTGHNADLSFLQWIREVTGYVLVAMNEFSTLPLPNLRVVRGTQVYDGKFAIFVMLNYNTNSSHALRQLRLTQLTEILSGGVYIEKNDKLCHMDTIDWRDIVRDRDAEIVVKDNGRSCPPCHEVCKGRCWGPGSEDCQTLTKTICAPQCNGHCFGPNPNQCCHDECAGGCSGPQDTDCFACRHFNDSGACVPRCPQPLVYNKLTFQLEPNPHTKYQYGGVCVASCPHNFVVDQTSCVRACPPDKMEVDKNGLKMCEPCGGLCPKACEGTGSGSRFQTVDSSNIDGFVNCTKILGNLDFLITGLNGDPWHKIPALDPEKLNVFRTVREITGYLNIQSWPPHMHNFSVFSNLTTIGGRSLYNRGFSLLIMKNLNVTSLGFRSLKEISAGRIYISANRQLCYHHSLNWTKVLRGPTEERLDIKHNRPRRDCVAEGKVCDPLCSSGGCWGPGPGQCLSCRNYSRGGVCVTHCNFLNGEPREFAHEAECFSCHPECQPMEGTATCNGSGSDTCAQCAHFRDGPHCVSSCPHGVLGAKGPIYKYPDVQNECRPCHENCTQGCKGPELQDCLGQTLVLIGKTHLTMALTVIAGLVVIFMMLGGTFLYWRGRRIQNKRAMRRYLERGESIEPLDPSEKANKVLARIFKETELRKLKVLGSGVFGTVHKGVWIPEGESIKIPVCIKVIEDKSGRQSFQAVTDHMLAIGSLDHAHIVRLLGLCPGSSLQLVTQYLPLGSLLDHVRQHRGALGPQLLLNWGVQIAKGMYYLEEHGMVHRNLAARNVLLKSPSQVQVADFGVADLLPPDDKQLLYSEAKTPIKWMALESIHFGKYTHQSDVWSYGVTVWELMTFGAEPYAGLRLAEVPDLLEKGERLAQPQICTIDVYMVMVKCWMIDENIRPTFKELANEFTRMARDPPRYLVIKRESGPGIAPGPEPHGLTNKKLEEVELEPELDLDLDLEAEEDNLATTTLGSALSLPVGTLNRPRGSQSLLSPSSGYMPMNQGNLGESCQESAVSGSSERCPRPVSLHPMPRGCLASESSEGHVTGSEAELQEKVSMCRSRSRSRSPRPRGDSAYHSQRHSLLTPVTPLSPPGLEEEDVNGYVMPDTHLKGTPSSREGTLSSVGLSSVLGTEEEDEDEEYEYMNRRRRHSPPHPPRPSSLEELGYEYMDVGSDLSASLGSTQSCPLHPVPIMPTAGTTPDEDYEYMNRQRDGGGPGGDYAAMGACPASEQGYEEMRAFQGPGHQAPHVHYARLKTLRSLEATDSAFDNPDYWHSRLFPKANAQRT

Assays:
Assay in all cases: kinase-Nluc reporter destabilization hit call (1 = scored as downregulated) (binary); higher = compound decreases kinase abundance
Conditions in all cases: K562; 2-18 h
CDK7 = CDK7 (UniProt P50613)
CDK9 = CDK9 (UniProt P50750)
CHEK2 = CHEK2 (UniProt O96017)
CSF1R = CSF1R (UniProt P07333)
CSK = CSK (UniProt P41240)
CSNK1A1 = CSNK1A1 (UniProt P48729)
CSNK1D = CSNK1D (UniProt P48730)
DDR1 = DDR1 (UniProt Q08345)
DYRK1B = DYRK1B (UniProt Q9Y463)
DYRK2 = DYRK2 (UniProt Q92630)
EGFR = EGFR (UniProt P00533)
EGFR_G719S = EGFR_G719S (UniProt P00533)
EGFR_G719S_T790M = EGFR_G719S_T790M (UniProt P00533)
EGFR_L718V = EGFR_L718V (UniProt P00533)
EGFR_L858R = EGFR_L858R (UniProt P00533)
EGFR_L861Q = EGFR_L861Q (UniProt P00533)
EGFR_T790M = EGFR_T790M (UniProt P00533)
EPHA2 = EPHA2 (UniProt P29317)
ERBB3 = ERBB3 (UniProt P21860)
[1] = molecular target: ERBB4_R711C (clone: ERBB4_mut) (UniProt Q15303)

Measured: kinase-Nluc reporter destabilization hit call

COc1cc(C(N)=O)nc(-c2cccc(C#C[C@]3(O)CCN(C)C3=O)c2)c1 (10 µM)
inactive: CDK7 = 0 | CDK9 = 0 | CHEK2 = 0 | CSF1R 0 | CSK 0 | CSNK1A1 = 0 | CSNK1D 0 | DDR1 = 0 | DYRK1B 0 | DYRK2 = 0 | EGFR 0 | EGFR_G719S 0 | EGFR_G719S_T790M 0 | EGFR_L718V 0 | EGFR_L858R 0 | EGFR_L861Q 0 | EGFR_T790M 0 | EPHA2 = 0 | ERBB3 = 0 | [1] 0

O=C(CNC(=O)c1ccc(-c2ccccc2)cc1)NC1CCCc2ccccc21 (stereo not given) [TAO Kinase inhibitor 1] (10 µM)
inactive: CDK7 = 0 | CDK9 = 0 | CHEK2 = 0 | CSF1R 0 | CSK 0 | CSNK1A1 = 0 | CSNK1D 0 | DDR1 = 0 | DYRK1B 0 | DYRK2 = 0 | EGFR 0 | EGFR_G719S 0 | EGFR_G719S_T790M 0 | EGFR_L718V 0 | EGFR_L858R 0 | EGFR_L861Q 0 | EGFR_T790M 0 | EPHA2 = 0 | ERBB3 = 0 | [1] 0

COc1cc([N+](=O)[O-])ccc1S(=O)(=O)N1C[C@@H](CN2CCN(c3ccccn3)CC2)[C@H](c2cccc(F)c2)C1 (relative stereo) (10 µM)
inactive: CDK7 = 0 | CDK9 = 0 | CHEK2 = 0 | CSF1R 0 | CSK 0 | CSNK1A1 = 0 | CSNK1D 0 | DDR1 = 0 | DYRK1B 0 | DYRK2 = 0 | EGFR 0 | EGFR_G719S 0 | EGFR_G719S_T790M 0 | EGFR_L718V 0 | EGFR_L858R 0 | EGFR_L861Q 0 | EGFR_T790M 0 | EPHA2 = 0 | ERBB3 = 0 | [1] 0

CCOc1cc(C(=O)N2CCC(N3CCN(C)CC3)CC2)ccc1Nc1ncc2c(n1)N(C1CCCC1)c1ccccc1C(=O)N2C (10 µM)
inactive: CDK7 = 0 | CDK9 = 0 | CHEK2 = 0 | CSF1R 0 | CSK 0 | CSNK1A1 = 0 | CSNK1D 0 | DDR1 = 0 | DYRK1B 0 | DYRK2 = 0 | EGFR 0 | EGFR_G719S 0 | EGFR_G719S_T790M 0 | EGFR_L718V 0 | EGFR_L858R 0 | EGFR_L861Q 0 | EGFR_T790M 0 | EPHA2 = 0 | ERBB3 = 0 | [1] 0

C[C@@]1(O)CCC[C@H]1n1c(=O)c(C(F)F)cc2cnc(NC3CCN(S(C)(=O)=O)CC3)nc21 (2.5 µM)
inactive: CDK7 = 0 | CDK9 = 0 | CHEK2 = 0 | CSF1R 0 | CSK 0 | CSNK1A1 = 0 | CSNK1D 0 | DDR1 = 0 | DYRK1B 0 | DYRK2 = 0 | EGFR 0 | EGFR_G719S 0 | EGFR_G719S_T790M 0 | EGFR_L718V 0 | EGFR_L858R 0 | EGFR_L861Q 0 | EGFR_T790M 0 | EPHA2 = 0 | ERBB3 = 0 | [1] 0

CCn1c(C(=O)N(C2CC2)C2CC2)cc2c3c(ncn3C)c(Nc3cc(C)n(C)n3)nc21 (10 µM)
inactive: CDK7 = 0 | CDK9 = 0 | CHEK2 = 0 | CSF1R 0 | CSK 0 | CSNK1A1 = 0 | CSNK1D 0 | DDR1 = 0 | DYRK1B 0 | DYRK2 = 0 | EGFR 0 | EGFR_G719S 0 | EGFR_G719S_T790M 0 | EGFR_L718V 0 | EGFR_L858R 0 | EGFR_L861Q 0 | EGFR_T790M 0 | EPHA2 = 0 | ERBB3 = 0 | [1] 0

O=C(Nc1cc(Oc2cc(F)c(NC(=O)C3(C(=O)Nc4ccc(F)cc4)CC3)cc2F)ccn1)C1CC1 [Altiratinib] (10 µM)
inactive: CDK7 = 0 | CDK9 = 0 | CHEK2 = 0 | CSF1R 0 | CSK 0 | CSNK1A1 = 0 | CSNK1D 0 | DDR1 = 0 | DYRK1B 0 | DYRK2 = 0 | EGFR 0 | EGFR_G719S 0 | EGFR_G719S_T790M 0 | EGFR_L718V 0 | EGFR_L858R 0 | EGFR_L861Q 0 | EGFR_T790M 0 | EPHA2 = 0 | ERBB3 = 0 | [1] 0

O=C(O)c1cc(O)ccc1O [2,5-Dihydroxybenzoic acid] (10 µM)
inactive: CDK7 = 0 | CDK9 = 0 | CHEK2 = 0 | CSF1R 0 | CSK 0 | CSNK1A1 = 0 | CSNK1D 0 | DDR1 = 0 | DYRK1B 0 | DYRK2 = 0 | EGFR 0 | EGFR_G719S 0 | EGFR_G719S_T790M 0 | EGFR_L718V 0 | EGFR_L858R 0 | EGFR_L861Q 0 | EGFR_T790M 0 | EPHA2 = 0 | ERBB3 = 0 | [1] 0

Cc1ccc(Oc2nc3cc(-c4ccc5c(ccn5C)c4)c(Cl)cc3[nH]2)cc1C(=O)O (10 µM)
inactive: CDK7 = 0 | CDK9 = 0 | CHEK2 = 0 | CSF1R 0 | CSK 0 | CSNK1A1 = 0 | CSNK1D 0 | DDR1 = 0 | DYRK1B 0 | DYRK2 = 0 | EGFR 0 | EGFR_G719S 0 | EGFR_G719S_T790M 0 | EGFR_L718V 0 | EGFR_L858R 0 | EGFR_L861Q 0 | EGFR_T790M 0 | EPHA2 = 0 | ERBB3 = 0 | [1] 0

Cc1c(NC(=O)OC[C@@H]2COCCN2)cn2ncnc(Nc3ccc4c(cnn4Cc4cccc(F)c4)c3)c12 (10 µM)
inactive: CDK7 = 0 | CDK9 = 0 | CHEK2 = 0 | CSF1R 0 | CSK 0 | CSNK1A1 = 0 | CSNK1D 0 | DDR1 = 0 | DYRK1B 0 | DYRK2 = 0 | EGFR 0 | EGFR_G719S 0 | EGFR_G719S_T790M 0 | EGFR_L718V 0 | EGFR_L858R 0 | EGFR_L861Q 0 | EGFR_T790M 0 | EPHA2 = 0 | ERBB3 = 0 | [1] 0

C/C(=C1/C(=O)Nc2ccc(NC(N)=O)cc21)c1ccc[nH]1 (10 µM)
active: [1] 1
inactive: CDK7 = 0 | CDK9 = 0 | CHEK2 = 0 | CSF1R 0 | CSK 0 | CSNK1A1 = 0 | CSNK1D 0 | DDR1 = 0 | DYRK1B 0 | DYRK2 = 0 | EGFR 0 | EGFR_G719S 0 | EGFR_G719S_T790M 0 | EGFR_L718V 0 | EGFR_L858R 0 | EGFR_L861Q 0 | EGFR_T790M 0 | EPHA2 = 0 | ERBB3 = 0

Pulled one by one from the list above, two records:
C/C(=C1/C(=O)Nc2ccc(NC(N)=O)cc21)c1ccc[nH]1 (10 µM)
active: [1] 1
inactive: CDK7 = 0 | CDK9 = 0 | CHEK2 = 0 | CSF1R 0 | CSK 0 | CSNK1A1 = 0 | CSNK1D 0 | DDR1 = 0 | DYRK1B 0 | DYRK2 = 0 | EGFR 0 | EGFR_G719S 0 | EGFR_G719S_T790M 0 | EGFR_L718V 0 | EGFR_L858R 0 | EGFR_L861Q 0 | EGFR_T790M 0 | EPHA2 = 0 | ERBB3 = 0

CCn1c(C(=O)N(C2CC2)C2CC2)cc2c3c(ncn3C)c(Nc3cc(C)n(C)n3)nc21 (10 µM)
inactive: CDK7 = 0 | CDK9 = 0 | CHEK2 = 0 | CSF1R 0 | CSK 0 | CSNK1A1 = 0 | CSNK1D 0 | DDR1 = 0 | DYRK1B 0 | DYRK2 = 0 | EGFR 0 | EGFR_G719S 0 | EGFR_G719S_T790M 0 | EGFR_L718V 0 | EGFR_L858R 0 | EGFR_L861Q 0 | EGFR_T790M 0 | EPHA2 = 0 | ERBB3 = 0 | [1] 0

(more compounds)

Cc1ccc2nc(NC(=O)CSc3nc4c(c(=O)n3-c3ccccc3)SCC4)sc2c1 (2 µM)
inactive: CDK7 = 0 | CDK9 = 0 | CHEK2 = 0 | CSF1R 0 | CSK 0 | CSNK1A1 = 0 | CSNK1D 0 | DDR1 = 0 | DYRK1B 0 | DYRK2 = 0 | EGFR 0 | EGFR_G719S 0 | EGFR_G719S_T790M 0 | EGFR_L718V 0 | EGFR_L858R 0 | EGFR_L861Q 0 | EGFR_T790M 0 | EPHA2 = 0 | ERBB3 = 0 | [1] 0

COc1cc2ncn(-c3cc(OCc4ccccc4S(C)(=O)=O)c(C#N)s3)c2cc1OC (10 µM)
inactive: CDK7 = 0 | CDK9 = 0 | CHEK2 = 0 | CSF1R 0 | CSK 0 | CSNK1A1 = 0 | CSNK1D 0 | DDR1 = 0 | DYRK1B 0 | DYRK2 = 0 | EGFR 0 | EGFR_G719S 0 | EGFR_G719S_T790M 0 | EGFR_L718V 0 | EGFR_L858R 0 | EGFR_L861Q 0 | EGFR_T790M 0 | EPHA2 = 0 | ERBB3 = 0 | [1] 0

Cc1cc(O)c(C(C)C)cc1N=O [Poloxime] (10 µM)
inactive: CDK7 = 0 | CDK9 = 0 | CHEK2 = 0 | CSF1R 0 | CSK 0 | CSNK1A1 = 0 | CSNK1D 0 | DDR1 = 0 | DYRK1B 0 | DYRK2 = 0 | EGFR 0 | EGFR_G719S 0 | EGFR_G719S_T790M 0 | EGFR_L718V 0 | EGFR_L858R 0 | EGFR_L861Q 0 | EGFR_T790M 0 | EPHA2 = 0 | ERBB3 = 0 | [1] 0

CC(=O)N1CCN(c2cc(-c3cc(C(F)(F)F)c4c(N)ncnn34)ccc2C#N)C(=O)C1(C)C (10 µM)
inactive: CDK7 = 0 | CDK9 = 0 | CHEK2 = 0 | CSF1R 0 | CSK 0 | CSNK1A1 = 0 | CSNK1D 0 | DDR1 = 0 | DYRK1B 0 | DYRK2 = 0 | EGFR 0 | EGFR_G719S 0 | EGFR_G719S_T790M 0 | EGFR_L718V 0 | EGFR_L858R 0 | EGFR_L861Q 0 | EGFR_T790M 0 | EPHA2 = 0 | ERBB3 = 0 | [1] 0

Cc1cc(Nc2nc(N[C@@H](C)c3ccc(F)cc3)c(C#N)cc2F)n[nH]1 (10 µM)
inactive: CDK7 = 0 | CDK9 = 0 | CHEK2 = 0 | CSF1R 0 | CSK 0 | CSNK1A1 = 0 | CSNK1D 0 | DDR1 = 0 | DYRK1B 0 | DYRK2 = 0 | EGFR 0 | EGFR_G719S 0 | EGFR_G719S_T790M 0 | EGFR_L718V 0 | EGFR_L858R 0 | EGFR_L861Q 0 | EGFR_T790M 0 | EPHA2 = 0 | [1] 0
active: ERBB3 = 1

COc1ccc(-c2ccc3c(N4CCOC[C@@H]4C)nc(N4CCOC[C@@H]4C)nc3n2)cc1CO (2.5 µM)
inactive: CDK7 = 0 | CDK9 = 0 | CHEK2 = 0 | CSF1R 0 | CSK 0 | CSNK1A1 = 0 | CSNK1D 0 | DDR1 = 0 | DYRK1B 0 | DYRK2 = 0 | EGFR 0 | EGFR_G719S 0 | EGFR_G719S_T790M 0 | EGFR_L718V 0 | EGFR_L858R 0 | EGFR_L861Q 0 | EGFR_T790M 0 | EPHA2 = 0 | ERBB3 = 0 | [1] 0
